Laboratory results from PMC3849980.
These are yes or no findings as the source states them, for the method shown.

Amino acid sequences for entries named in this document (tags omitted). Residues count along the entry.
UniProt P02769, residues 25-607: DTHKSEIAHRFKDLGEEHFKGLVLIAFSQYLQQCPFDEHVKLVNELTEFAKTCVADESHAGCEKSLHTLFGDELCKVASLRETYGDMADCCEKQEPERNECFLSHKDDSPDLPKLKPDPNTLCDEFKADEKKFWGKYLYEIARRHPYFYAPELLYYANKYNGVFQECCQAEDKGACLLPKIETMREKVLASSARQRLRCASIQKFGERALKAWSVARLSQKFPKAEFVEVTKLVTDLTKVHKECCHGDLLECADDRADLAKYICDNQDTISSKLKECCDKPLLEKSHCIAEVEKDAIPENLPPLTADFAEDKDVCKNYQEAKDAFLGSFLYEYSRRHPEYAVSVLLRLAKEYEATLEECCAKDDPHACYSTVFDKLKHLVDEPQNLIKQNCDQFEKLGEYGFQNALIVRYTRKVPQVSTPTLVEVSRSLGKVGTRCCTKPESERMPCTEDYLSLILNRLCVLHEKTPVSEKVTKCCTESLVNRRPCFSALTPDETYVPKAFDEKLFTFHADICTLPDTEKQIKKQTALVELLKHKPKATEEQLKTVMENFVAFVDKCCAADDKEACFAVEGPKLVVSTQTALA

Legend:
[1] = target: bovine serum albumin (BSA) (bovine) (UniProt P02769); assay: ELISA; wells coated with Avastin, control antibodies or BSA overnight, blocked with 1% BSA; C-terminally biotin-labeled 12P added; HRP-streptavidin, OPD; both purified
[2] = target: bovine serum albumin (BSA) (bovine) (UniProt P02769); assay: ELISA; wells coated with Avastin mAb, control antibodies or BSA at 4°C overnight, blocked with 1% BSA in TBS; affinity-selected phage added, room temperature 2 h; HRP anti-M13 antibody, OD490; only the target purified

| Binder | binding [1] | binding [2] |
| --- | --- | --- |
| DHTLYTPYHTHP (C-terminally biotin-labeled) [12P, chemically synthesized mimotope peptide …] | no binding |  |
| NHFGKFLDALAG [Phage 2: phage plaques displaying peptide …] |  | no binding |
| DHTLYTPYHTHP [Phage 1: phage plaques displaying peptide …] |  | no binding |
